Some entries share one result that the patent states for a list of compounds. Some ranges recur; such a range may be that of the whole group of compounds.
System: p53^e7/e7 mutant embryos
Assay: Morpholino screen for suppressors of p53^e7/e7 radioresistance (live AO assay)
Format: in vivo, zebrafish
Details: p53^e7/e7, 12.5 Gy at 18 hpf, 7.5 hpIR
Procedure: We used morpholino antisense oligonucleotides (MOs) to knock down the expression levels of 8 zebrafish S- and G2-checkpoint kinases in p53^e7/e7 mutant embryos and assessed the ability of each knockdown to restore cell death (AO reactivity) at 7.5 hours post-IR (hpIR). We also tested several double-knockdown combinations, as well as knockdowns of non-kinase checkpoint regulators (p21^waf1/cip1 and smc1). For each knockdown, we scored a minimum of 50 embryos and quantified AO staining in at least 5 embryos. To avoid the isolation of false-positives, we adjusted the concentrations of each MO to the maximal dose compatible with normal embryonic development in the p53^e7/e7 background.
Morpholino oligonucleotides (MOs) synthesized by Gene Tools™ LLC, were resuspended in sterile water at a concentration of 1 mM and delivered into zebrafish embryos at the one-cell stage by microinjection. The injection apparatus consisted of a heat-pulled, filamentous RNAse free capillary tube positioned by a micromanipulator (Narishige™ M-125), through which the MO was pressure-injected using a nitrogen air supply controlled by a microinjector (Harvard Apparatus™ PLI-100). MOs were delivered into the yolk of embryos at the one cell stage, just below the cytoplasm. For each previously unpublished MO, the working concentration was determined as the highest dose compatible with normal zebrafish development in the p53^e7/e7 background (maximal subtoxic concentration). […] 100 ng of bcl-xl mRNA in vitro transcribed from full-length zebrafish bcl-xl cDNA cloned into pCS2 were injected as described above. All embryos were grown at 28.5° C. in egg water (5 mM NaCl, 0.17 mM KCl, 0.4 mM CaCl2 and 0.16 mM MgSO4). Knockdown efficiencies for the chk1, chk2, atm, atr, p63, casp8 and casp9 MOs at their maximal subtoxic concentrations are shown in FIG. 10. The sequences of the PCR primers used for RT-PCR-based monitoring of MO efficiencies are available upon request.
Live zebrafish embryos were dechorionated in pronase (2.0 mg/mL in egg water) for 3 to 5 min and rinsed five times in egg water at 18 hpf. Embryos were then γ-irradiated (12.5 Gy) using a ^137Cs-irradiator (Gammacell 1000) at 18 hr post-fertilization (hpf). At 24 hpf, embryos were incubated in […] Acridine Orange (AO; Sigma A-6014) in egg water for 30 min at 28.5° C., followed by 3 quick rinses and three 10-min washes in egg water. […] Lateral images of each zebrafish were acquired on a Zeiss Axioplan2 fluorescence microscope (5× lens), using OpenLab software and a Hammamatsu C4742-95 digital camera. […]

Substance	AO reactivity restored, of the p53+/+ response
atm MO: morpholino against zebrafish atm, splice acceptor i55/e56 (SEQ ID NO: 14) (GAAAACGGCACCACCTGGTAAAAAC; antisense; all phosphorodiamidate morpholino (PMO))	1-5%
atr MO: morpholino against zebrafish atr atg/5'UTR (SEQ ID NO: 15) (TGACATTTCTAGTCCTTGCTCCATC; antisense; all phosphorodiamidate morpholino (PMO))	1-5%
chk2 MO: morpholino against zebrafish chk2 atg/5'UTR (SEQ ID NO: 13) (TCCAGCTTCCTCAGACATGATGCTT; all phosphorodiamidate morpholino (PMO))	1-5%
smg-1/atx MO: morpholino against zebrafish smg-1/atx, splice donor e6/i6 (SEQ ID NO: 16) (GAGTAAATCCATTGGAGTAGGTACC; all phosphorodiamidate morpholino (PMO))	1-5%
